Measured values reported in PMC12358912.
Results are given in words; binding and its absence hold for the method and conditions named. Some binding calls cover weakened binding; strength is not graded here.

Biological target: T1, SMC1 (UniProt Q14683)
T1 sequence: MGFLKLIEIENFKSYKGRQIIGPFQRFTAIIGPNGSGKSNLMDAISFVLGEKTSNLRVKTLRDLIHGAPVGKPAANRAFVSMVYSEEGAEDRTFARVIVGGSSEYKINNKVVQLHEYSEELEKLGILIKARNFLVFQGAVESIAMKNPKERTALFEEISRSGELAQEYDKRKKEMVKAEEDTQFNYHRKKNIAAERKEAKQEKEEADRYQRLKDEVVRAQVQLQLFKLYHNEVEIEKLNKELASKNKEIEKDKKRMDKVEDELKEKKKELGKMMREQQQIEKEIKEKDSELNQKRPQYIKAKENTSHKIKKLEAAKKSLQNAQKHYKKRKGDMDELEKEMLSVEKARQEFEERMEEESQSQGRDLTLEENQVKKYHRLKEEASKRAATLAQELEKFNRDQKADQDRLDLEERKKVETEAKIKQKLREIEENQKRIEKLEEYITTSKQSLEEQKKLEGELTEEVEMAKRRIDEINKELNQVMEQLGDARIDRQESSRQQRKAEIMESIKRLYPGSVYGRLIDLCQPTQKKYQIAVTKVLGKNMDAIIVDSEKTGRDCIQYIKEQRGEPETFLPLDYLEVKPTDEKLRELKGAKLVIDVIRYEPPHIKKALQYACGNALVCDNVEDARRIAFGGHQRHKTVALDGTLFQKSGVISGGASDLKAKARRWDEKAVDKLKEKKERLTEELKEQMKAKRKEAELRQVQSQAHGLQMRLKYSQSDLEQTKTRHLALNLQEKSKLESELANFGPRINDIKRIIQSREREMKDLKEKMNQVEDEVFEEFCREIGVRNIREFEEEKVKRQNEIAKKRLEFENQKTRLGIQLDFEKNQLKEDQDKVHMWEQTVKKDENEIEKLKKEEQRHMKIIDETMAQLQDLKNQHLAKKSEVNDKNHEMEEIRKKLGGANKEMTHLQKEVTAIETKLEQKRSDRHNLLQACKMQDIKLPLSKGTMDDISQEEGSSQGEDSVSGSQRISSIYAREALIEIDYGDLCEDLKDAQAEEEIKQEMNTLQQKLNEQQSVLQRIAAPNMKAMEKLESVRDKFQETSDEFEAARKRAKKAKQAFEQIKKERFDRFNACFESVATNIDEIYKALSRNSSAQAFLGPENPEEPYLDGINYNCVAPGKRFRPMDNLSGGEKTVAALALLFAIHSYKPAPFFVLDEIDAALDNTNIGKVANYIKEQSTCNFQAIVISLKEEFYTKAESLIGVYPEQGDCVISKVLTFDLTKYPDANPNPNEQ
Experiment: mass photometry; in solution; the purified cohesin Trimer measured alone; peak at the mass expected of the three-subunit complex

binding: binds
B1: SCC1 (protein, UniProt O60216 1-631)
chain: MFYAHFVLSKRGPLAKIWLAAHWDKKLTKAHVFECNLESSVESIISPKVKMALRTSGHLLLGVVRIYHRKAKYLLADCNEAFIKIKMAFRPGVVDLPEENREAAYNAITLPEEFHDFDQPLPDLDDIDVAQQFSLNQSRVEEITMREEVGNISILQENDFGDFGMDDREIMREGSAFEDDDMLVSTTTSNLLLESEQSTSNLNEKINHLEYEDQYKDDNFGEGNDGGILDDKLISNNDGGIFDDPPALSEAGVMLPEQPAHDDMDEDDNVSMGGPDSPDSVDPVEPMPTMTDQTTLVPNEEEAFALEPIDITVKETKAKRKRKLIVDSVKELDSKTIRAQLSDYSDIVTTLDLAPPTKKLMMWKETGGVEKLFSLPAQPLWNNRLLKLFTRCLTPLVPEDLRKRRKGGEADNLDEFLKEFENPEVPREDQQQQHQQRDVIDEPIIEEPSRLQESVMEASRTNIDESAMPPPPPQGVKRKAGQIDPEPVMPPQQVEQMEIPPVELPPEEPPNICQLIPELELLPEKEKEKEKEKEDDEEEEDEDASGGDQDQEERRWNKRTQQMLHGLQRALAKTGAESISLLELCRNTNRKQAAAKFYSFLVLKKQQAIELTQEEPYSDIIATPGPRFHII
